Values of other authors as cited in paper PMC10060569 (Frontiers in Pharmacology, 2023).
Several values for one entry are separate records, joined by “and”; a condition that tells them apart may be missing. Equal entries are not always repeated.

Details: administered orally; ref Desager et al., 1976; Dresse et al., 1978; cited from earlier work

Question: With `COc1ccc2cc([C@H](C)C(=O)O)ccc2c1` [Naproxen, naproxen] as the compound, how does the “maximum plasma levels, oral” value read?
Answer: 70–80 μg/ml and 300–350 µM

Question: And the “time to maximum plasma levels, oral” value?
Answer: about 2 h
